Some of the results follow.
Columns and labels:
Experiment in all cases: log2 fold change, soluble protein after heating vs DMSO (PISA); higher = thermal stabilisation; K562 lysate, 10 uM; active = over 0.2 and 3.5 SD of the protein, either way, in both replicates (recomputed)
ibrutinib = compound: C=CC(=O)N1CCC[C@@H](n2nc(-c3ccc(Oc4ccccc4)cc3)c3c(N)ncnc32)C1 [ibrutinib]
In short: (§1)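 To prepare the extract, K562 pellets were dounce-homogenised in PBS pH 7.4 with 1 mM MgCl2, giving crude material at 1 mg/mL protein. This was treated with 10 μM compound for 30 min, then heated in aliquots for 3 min over 48°C-58°C before pooling and addition of NP-40 to 0.5% at 4°C. Centrifugation at 21,000xg for 90 min left soluble protein in the supernatant, which TMTpro 16plex LC-MS/MS quantified with equalised channel sums. Results are log-two fold changes in thermal stability compared with solvent controls, from duplicates.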

Sequences of proteins named here, by UniProt entry; tags and fusion partners are left off. A change or cut given only in a name is not applied to a line headed by its entry.
UniProt Q9H1J1: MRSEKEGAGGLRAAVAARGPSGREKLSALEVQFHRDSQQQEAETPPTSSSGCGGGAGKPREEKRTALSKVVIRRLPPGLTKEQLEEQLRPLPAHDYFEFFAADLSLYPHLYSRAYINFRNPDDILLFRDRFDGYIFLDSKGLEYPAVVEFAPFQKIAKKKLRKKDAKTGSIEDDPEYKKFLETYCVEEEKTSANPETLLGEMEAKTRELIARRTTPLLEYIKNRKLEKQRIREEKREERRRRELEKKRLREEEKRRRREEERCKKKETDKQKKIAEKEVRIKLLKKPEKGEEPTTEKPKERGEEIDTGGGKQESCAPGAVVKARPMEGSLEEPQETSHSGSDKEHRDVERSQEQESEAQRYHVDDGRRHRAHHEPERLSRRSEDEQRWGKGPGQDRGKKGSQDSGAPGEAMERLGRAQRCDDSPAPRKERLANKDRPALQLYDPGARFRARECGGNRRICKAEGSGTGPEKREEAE
UniProt Q68DE3: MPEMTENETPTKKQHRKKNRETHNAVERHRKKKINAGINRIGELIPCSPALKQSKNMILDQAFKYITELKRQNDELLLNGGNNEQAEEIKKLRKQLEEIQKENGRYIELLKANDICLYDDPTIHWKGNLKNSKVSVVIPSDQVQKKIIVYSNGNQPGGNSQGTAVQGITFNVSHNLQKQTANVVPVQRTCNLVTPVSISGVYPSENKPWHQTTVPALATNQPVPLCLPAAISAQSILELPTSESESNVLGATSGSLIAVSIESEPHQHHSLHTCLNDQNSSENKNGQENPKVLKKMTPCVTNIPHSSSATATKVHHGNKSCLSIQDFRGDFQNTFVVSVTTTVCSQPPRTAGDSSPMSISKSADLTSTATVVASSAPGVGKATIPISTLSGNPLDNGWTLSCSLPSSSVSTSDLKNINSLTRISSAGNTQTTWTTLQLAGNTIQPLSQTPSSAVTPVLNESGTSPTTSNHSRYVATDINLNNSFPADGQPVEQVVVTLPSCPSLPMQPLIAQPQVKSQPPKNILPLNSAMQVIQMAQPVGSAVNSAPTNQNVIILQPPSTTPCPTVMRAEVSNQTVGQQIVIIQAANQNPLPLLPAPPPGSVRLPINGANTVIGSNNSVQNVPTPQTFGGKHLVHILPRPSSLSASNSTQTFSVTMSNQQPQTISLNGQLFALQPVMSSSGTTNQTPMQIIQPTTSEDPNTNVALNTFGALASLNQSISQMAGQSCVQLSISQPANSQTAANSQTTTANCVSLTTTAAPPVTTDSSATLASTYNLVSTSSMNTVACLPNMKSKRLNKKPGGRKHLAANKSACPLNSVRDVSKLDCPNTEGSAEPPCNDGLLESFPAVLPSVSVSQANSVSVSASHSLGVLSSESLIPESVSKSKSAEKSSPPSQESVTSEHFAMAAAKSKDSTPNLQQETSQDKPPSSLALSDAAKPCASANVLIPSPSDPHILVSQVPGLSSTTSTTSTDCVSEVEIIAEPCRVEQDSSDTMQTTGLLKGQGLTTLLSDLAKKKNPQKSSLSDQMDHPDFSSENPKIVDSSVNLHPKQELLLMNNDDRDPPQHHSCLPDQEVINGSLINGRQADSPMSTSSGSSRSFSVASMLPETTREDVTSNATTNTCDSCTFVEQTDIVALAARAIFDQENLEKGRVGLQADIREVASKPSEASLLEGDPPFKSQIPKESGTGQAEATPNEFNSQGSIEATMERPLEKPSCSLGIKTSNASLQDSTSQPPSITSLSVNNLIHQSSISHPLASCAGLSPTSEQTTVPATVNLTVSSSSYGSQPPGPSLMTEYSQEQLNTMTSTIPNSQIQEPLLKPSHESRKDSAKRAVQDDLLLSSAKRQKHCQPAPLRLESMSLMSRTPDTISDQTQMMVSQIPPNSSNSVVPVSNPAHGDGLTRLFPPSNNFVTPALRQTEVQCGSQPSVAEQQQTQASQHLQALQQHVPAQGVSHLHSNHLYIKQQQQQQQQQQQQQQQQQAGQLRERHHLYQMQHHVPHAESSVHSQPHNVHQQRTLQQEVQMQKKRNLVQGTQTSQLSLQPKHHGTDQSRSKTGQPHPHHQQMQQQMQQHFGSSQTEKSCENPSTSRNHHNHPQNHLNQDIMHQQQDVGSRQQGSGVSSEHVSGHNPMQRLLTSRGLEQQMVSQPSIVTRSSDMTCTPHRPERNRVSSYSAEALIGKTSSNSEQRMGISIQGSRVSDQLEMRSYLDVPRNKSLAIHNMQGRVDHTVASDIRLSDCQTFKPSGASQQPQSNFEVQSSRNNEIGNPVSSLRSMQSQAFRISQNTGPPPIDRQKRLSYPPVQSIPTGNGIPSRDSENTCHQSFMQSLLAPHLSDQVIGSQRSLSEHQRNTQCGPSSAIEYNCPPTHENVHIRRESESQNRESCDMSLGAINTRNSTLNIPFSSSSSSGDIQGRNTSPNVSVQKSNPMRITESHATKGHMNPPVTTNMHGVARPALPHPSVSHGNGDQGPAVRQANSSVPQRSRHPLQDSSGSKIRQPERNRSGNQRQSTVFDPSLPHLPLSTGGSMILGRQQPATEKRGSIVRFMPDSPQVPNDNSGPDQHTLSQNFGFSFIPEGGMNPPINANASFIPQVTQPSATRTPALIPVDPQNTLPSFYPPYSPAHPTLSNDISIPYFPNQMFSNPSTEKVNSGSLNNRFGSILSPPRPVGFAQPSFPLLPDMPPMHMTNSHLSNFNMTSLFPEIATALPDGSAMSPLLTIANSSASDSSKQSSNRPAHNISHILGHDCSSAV
UniProt Q8NBZ7: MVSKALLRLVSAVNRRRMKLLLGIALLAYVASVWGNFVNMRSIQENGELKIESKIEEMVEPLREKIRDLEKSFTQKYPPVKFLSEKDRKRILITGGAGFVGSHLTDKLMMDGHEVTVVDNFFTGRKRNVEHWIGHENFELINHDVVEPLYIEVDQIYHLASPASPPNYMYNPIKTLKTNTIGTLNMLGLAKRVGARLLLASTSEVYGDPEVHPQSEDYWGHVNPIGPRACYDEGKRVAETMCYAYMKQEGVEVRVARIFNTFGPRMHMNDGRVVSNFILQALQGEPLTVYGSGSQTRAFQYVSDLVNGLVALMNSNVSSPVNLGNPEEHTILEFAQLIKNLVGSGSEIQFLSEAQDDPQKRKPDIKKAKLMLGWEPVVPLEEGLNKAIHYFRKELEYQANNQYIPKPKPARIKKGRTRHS
UniProt Q9Y3A2: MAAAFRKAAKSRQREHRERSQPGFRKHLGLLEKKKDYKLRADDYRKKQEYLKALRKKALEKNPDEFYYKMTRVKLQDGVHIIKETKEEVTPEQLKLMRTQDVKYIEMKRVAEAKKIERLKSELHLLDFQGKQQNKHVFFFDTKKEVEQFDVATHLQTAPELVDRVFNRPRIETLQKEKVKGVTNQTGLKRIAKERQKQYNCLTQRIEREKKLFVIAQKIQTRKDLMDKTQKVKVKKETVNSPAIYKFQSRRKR
UniProt C9J7I0: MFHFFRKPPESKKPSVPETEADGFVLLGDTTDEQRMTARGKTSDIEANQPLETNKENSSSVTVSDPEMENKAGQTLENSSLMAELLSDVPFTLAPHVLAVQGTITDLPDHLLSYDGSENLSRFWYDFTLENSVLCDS
UniProt Q14146: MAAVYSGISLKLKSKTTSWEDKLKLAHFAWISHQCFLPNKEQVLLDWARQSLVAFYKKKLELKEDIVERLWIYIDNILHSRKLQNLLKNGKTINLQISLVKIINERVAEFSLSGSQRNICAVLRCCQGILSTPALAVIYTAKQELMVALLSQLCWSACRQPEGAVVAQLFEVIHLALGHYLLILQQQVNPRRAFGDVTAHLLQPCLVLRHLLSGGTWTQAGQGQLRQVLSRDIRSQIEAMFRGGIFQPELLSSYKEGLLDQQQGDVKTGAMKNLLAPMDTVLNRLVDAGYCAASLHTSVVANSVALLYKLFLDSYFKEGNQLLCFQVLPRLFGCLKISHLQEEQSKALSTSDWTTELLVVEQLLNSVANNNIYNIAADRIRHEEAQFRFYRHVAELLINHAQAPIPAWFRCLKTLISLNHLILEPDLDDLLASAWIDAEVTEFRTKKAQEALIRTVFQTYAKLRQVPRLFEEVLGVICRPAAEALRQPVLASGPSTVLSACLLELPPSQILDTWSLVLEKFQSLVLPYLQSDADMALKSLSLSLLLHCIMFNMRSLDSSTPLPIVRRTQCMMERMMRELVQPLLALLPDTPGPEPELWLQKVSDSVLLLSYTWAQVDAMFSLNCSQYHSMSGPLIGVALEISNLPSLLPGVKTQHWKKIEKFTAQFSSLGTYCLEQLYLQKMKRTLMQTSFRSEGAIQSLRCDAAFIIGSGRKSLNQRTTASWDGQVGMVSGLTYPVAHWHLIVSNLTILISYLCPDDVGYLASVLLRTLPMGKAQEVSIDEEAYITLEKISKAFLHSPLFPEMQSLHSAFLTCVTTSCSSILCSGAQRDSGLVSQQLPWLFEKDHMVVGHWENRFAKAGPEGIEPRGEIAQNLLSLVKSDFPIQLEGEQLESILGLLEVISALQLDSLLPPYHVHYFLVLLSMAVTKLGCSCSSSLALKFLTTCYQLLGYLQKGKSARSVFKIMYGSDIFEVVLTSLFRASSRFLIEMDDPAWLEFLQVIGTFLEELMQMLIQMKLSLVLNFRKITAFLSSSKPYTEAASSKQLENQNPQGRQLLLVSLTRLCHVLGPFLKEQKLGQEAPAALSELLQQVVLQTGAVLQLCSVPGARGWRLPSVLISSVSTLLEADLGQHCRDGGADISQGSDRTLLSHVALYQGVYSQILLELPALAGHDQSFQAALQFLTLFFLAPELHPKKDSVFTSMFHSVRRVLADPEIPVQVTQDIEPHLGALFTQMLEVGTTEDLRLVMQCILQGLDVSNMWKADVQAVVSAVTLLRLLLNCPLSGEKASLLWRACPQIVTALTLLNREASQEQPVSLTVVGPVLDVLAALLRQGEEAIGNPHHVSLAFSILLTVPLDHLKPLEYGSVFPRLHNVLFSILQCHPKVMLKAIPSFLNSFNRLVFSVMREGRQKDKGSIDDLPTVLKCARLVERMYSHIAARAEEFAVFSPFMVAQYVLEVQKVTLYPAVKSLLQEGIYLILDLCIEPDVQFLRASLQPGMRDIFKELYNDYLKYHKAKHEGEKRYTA
UniProt Q92738: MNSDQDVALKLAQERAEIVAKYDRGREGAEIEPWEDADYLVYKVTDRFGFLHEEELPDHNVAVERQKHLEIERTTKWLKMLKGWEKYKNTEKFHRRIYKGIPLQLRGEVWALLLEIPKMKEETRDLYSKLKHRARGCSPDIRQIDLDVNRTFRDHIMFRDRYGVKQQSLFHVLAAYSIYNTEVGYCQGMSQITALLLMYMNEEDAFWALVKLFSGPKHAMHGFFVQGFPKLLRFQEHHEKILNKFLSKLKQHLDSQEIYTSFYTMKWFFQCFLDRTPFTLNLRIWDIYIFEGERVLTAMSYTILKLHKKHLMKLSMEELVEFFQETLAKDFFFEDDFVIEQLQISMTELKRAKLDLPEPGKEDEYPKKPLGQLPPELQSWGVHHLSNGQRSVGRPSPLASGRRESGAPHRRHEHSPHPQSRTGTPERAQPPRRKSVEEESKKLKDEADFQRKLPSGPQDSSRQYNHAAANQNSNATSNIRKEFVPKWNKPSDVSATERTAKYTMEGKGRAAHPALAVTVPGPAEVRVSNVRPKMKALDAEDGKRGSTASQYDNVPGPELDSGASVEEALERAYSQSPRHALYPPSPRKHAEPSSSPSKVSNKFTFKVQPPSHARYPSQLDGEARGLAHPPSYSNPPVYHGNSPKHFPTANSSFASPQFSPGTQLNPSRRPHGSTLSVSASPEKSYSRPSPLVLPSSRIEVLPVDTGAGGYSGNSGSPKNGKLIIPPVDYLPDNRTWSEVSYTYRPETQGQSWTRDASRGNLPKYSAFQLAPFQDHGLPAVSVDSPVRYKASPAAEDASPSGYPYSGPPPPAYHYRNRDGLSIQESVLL
UniProt Q9BQ65: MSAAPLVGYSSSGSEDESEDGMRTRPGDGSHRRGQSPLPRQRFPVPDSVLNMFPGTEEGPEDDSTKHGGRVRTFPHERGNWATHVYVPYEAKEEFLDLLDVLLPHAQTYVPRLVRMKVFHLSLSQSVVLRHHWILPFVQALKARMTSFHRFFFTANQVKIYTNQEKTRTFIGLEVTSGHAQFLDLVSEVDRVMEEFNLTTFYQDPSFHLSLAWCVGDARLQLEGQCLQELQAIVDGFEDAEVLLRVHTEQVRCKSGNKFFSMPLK
UniProt Q9Y277: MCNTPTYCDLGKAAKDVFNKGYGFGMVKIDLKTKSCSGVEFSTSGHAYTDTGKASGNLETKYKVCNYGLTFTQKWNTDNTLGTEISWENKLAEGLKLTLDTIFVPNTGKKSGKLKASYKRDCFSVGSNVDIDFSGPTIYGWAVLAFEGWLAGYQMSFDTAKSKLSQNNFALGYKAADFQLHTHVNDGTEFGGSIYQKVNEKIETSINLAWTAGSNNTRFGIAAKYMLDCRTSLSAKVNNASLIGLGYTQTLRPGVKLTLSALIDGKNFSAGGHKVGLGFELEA

[1] = compound: CC(=O)c1cnc2ccc(-c3cc(Cl)c(O)c(Cl)c3)nc2c1N[C@H]1CC[C@H](CN(C)C)CC1
In short: as §1

[2] = compound: CC(C)C1=C2N=C(C=C(N2N=C1)NCC3=CC=CC=C3)NCCCCCCN
In short: as §1

[3] = compound: CC1=C(C2=C(C=C1)C(=O)C3=CC=CC=C3N2CCCN)C
In short: as §1

[4] = compound: CC1=C(C=C(C=C1)NC(=O)C2=CC(=CC=C2)C(C)(C)C#N)NC3=CC4=C(C=C3)N=CN(C4=O)C
In short: as §1

[5] = compound: CC1=CC=C(C=C1)SC2=C3C=C(SC3=CN=C2)C(=O)N
In short: as §1

vemurafenib = compound: CCCS(=O)(=O)Nc1ccc(F)c(C(=O)c2c[nH]c3ncc(-c4ccc(Cl)cc4)cc23)c1F [vemurafenib]
In short: as §1

[6] = compound: CCCS(=O)(=O)Nc1ccc(F)c(C(=O)c2c[nH]c3ncc(Cl)cc23)c1F
In short: as §1

barasertib = compound: CCN(CCCOc1ccc2c(Nc3cc(CC(=O)Nc4cccc(F)c4)[nH]n3)ncnc2c1)CCOP(=O)(O)O [barasertib]
In short: as §1

[7] = compound: CC[C@@H]1C(=O)N(C)c2cnc(Nc3ccc(C(=O)NC4CCN(C)CC4)cc3OC)nc2N1C1CCCC1
In short: as §1

volasertib = compound: CC[C@@H]1C(=O)N(C)c2cnc(Nc3ccc(C(=O)N[C@H]4CC[C@H](N5CCN(CC6CC6)CC5)CC4)cc3OC)nc2N1C(C)C [volasertib]
In short: as §1

[8] = compound: CCn1cc(-c2ccnc3[nH]c(-c4cccc(CN(C)C)c4)cc23)c(-c2ccc(NC(=O)N(C)C)cc2)n1
In short: as §1

[9] = compound: CN1CCC(CNc2ccc3ncc(-c4cccc(OC(F)(F)F)c4)n3n2)CC1
In short: as §1

saracatinib = compound: CN1CCN(CCOc2cc(OC3CCOCC3)c3c(Nc4c(Cl)ccc5c4OCO5)ncnc3c2)CC1 [saracatinib]
In short: as §1

sotrastaurin = compound: CN1CCN(c2nc(C3=C(c4c[nH]c5ccccc45)C(=O)NC3=O)c3ccccc3n2)CC1 [sotrastaurin]
In short: as §1

ralimetinib = compound: CC(C)(C)Cn1c(N)nc2ccc(-c3[nH]c(C(C)(C)C)nc3-c3ccc(F)cc3)nc21 [ralimetinib]
In short: as §1

[10] = compound: CC(C)(O)CC(=O)NCCn1ccc2ncnc(Nc3ccc(Oc4cccc(C(F)(F)F)c4)c(Cl)c3)c21
In short: as §1

[11] = compound: CC1=C(C=C(C=C1)NC(=O)C2=CC(=CC=C2)N(C)C)NC(=O)C3=CC=C(C=C3)O
In short: as §1

[12] = compound: CCn1c(C(=O)N(C2CC2)C2CC2)cc2c3c(ncn3C)c(Nc3cc(C)n(C)n3)nc21
In short: as §1

[13] = compound: CC1=C(C(CC(=O)N1)C2=CC=C(C=C2)C(F)(F)F)C(=O)NC3=C(C=C4C(=C3)C=NN4)F
In short: as §1

Target	log2 fold change (ibrutinib)	log2 fold change [1]	log2 fold change [2]	log2 fold change [3]	log2 fold change [4]	log2 fold change [5]	log2 fold change (vemurafenib)	log2 fold change [6]	log2 fold change (barasertib)	log2 fold change [7]	log2 fold change (volasertib)	log2 fold change [8]	log2 fold change [9]	log2 fold change (saracatinib)	log2 fold change (sotrastaurin)	log2 fold change (ralimetinib)	log2 fold change [10]	log2 fold change [11]	log2 fold change [12]	log2 fold change [13]
ULK3 isoform 4 (UniProt Q6PHR2)	inactive: -0.08	inactive: -0.024	inactive: -0.091	inactive: -0.06	inactive: 0.094	inactive: 0.08	inactive: 0.022	inactive: -0.042	inactive: 0.001	inactive: -0.196	inactive: -0.139	active: -0.634	inactive: -0.285	inactive: 0.18	inactive: -0.077	–	–	–	–	–
VEZT (UniProt F8W8C2)	inactive: 0.094	inactive: 0.05	inactive: 0.007	–	inactive: -0.512	inactive: -0.081	inactive: -0.116	inactive: -0.282	inactive: 0.078	inactive: -0.063	inactive: 0.06	inactive: 0.078	inactive: 0.004	–	inactive: -0.316	inactive: 0.158	inactive: -0.079	inactive: 0.116	inactive: 0.157	–
UPF3A (UniProt Q9H1J1)	inactive: 0.006	inactive: 0.024	inactive: -0.114	–	inactive: 0.014	inactive: 0.019	–	inactive: 0.048	inactive: 0.119	inactive: 0.194	inactive: -0.024	inactive: -0.087	inactive: 0.002	–	inactive: 0.067	inactive: 0.115	inactive: 0.005	inactive: -0.025	inactive: 0.049	–
USP42 (UniProt Q9H9J4)	inactive: 0.111	inactive: 0.077	–	–	inactive: 0.045	inactive: 0.02	–	inactive: -0.105	inactive: -0.136	inactive: 0.095	inactive: 0.072	–	–	–	inactive: -0.081	–	–	–	–	inactive: 0.011
USF3 (UniProt Q68DE3)	inactive: 0.001	inactive: -0.048	inactive: 0.113	–	–	inactive: -0.143	–	inactive: 0.03	inactive: 0.172	inactive: -0.096	inactive: -0.067	–	–	–	–	–	–	–	–	–
USP7 (UniProt H3BND8)	inactive: 0.199	inactive: -0.12	–	–	–	inactive: 0.076	–	inactive: -0.063	inactive: 0.177	–	inactive: -0.006	–	–	–	–	–	–	–	–	inactive: -0.023
UTRN isoform 2 (UniProt P46939)	inactive: -0.03	–	inactive: -0.012	–	–	–	–	–	inactive: -0.019	inactive: -0.318	–	inactive: 0.148	inactive: -0.003	–	–	–	–	–	–	–
UXS1 isoform 2 (UniProt Q8NBZ7)	inactive: 0.007	inactive: 0.096	inactive: 0	inactive: 0.112	inactive: -0.027	inactive: 0.03	inactive: 0.005	inactive: 0.053	inactive: -0.092	inactive: 0.031	inactive: 0	inactive: 0.023	inactive: 0.023	inactive: 0	inactive: -0.006	inactive: -0.039	inactive: -0.046	inactive: -0.019	inactive: -0.002	–
UTP3 (UniProt Q9NQZ2)	inactive: 0.053	inactive: 0.001	inactive: -0.058	inactive: -0.123	inactive: -0.016	inactive: -0.018	inactive: 0.004	inactive: 0.012	inactive: 0.058	inactive: -0.009	inactive: -0.011	inactive: 0	inactive: -0.02	inactive: 0.011	inactive: 0.05	inactive: 0.055	inactive: -0.051	inactive: -0.023	inactive: -0.047	inactive: 0.026
UTP11 (UniProt Q9Y3A2)	inactive: -0.061	inactive: 0.018	–	inactive: 0.004	inactive: -0.081	inactive: 0.033	inactive: -0.048	inactive: -0.015	inactive: -0.144	inactive: 0.106	inactive: -0.023	inactive: -0.15	inactive: 0.094	inactive: -0.074	inactive: 0.01	–	–	–	–	inactive: -0.055
USP27X (UniProt A6NNY8)	–	–	–	–	inactive: 0.05	–	–	–	–	–	–	–	–	–	inactive: -0.061	inactive: 0.012	inactive: -0.197	inactive: 0.01	inactive: -0.176	–
USP12 (UniProt O75317)	–	inactive: 0.047	inactive: -0.122	–	inactive: 0.15	inactive: -0.134	inactive: 0.131	inactive: 0.075	–	inactive: 0.024	inactive: -0.003	inactive: -0.056	inactive: -0.008	–	inactive: 0.05	inactive: -0.101	inactive: -0.39	inactive: 0.233	inactive: 0.076	inactive: 0.028
USP15 isoform 3 (UniProt Q9Y4E8)	–	inactive: 0.037	–	inactive: 0	inactive: -0.049	inactive: -0.06	–	inactive: -0.005	–	–	inactive: 0.041	–	–	inactive: 0.036	inactive: -0.01	–	–	–	–	–
UMAD1 (UniProt C9J7I0)	–	inactive: -0.066	–	inactive: -0.045	inactive: 0.1	inactive: -0.017	–	inactive: 0.049	–	–	inactive: 0.038	inactive: 0.092	inactive: -0.112	inactive: 0.006	inactive: -0.071	inactive: 0.005	inactive: 0.027	inactive: 0.079	inactive: 0.093	inactive: -0.078
UNC13A (UniProt Q9UPW8)	–	–	inactive: 0.022	–	–	–	–	–	–	–	–	active: -1.79	inactive: 0.531	–	–	–	–	–	–	inactive: -0.053
URB2 (UniProt Q14146)	–	inactive: -0.066	–	inactive: -0.054	inactive: -0.012	inactive: -0.057	inactive: 0.017	inactive: 0.056	–	inactive: -0.08	inactive: -0.048	inactive: 0.014	inactive: 0	inactive: -0.013	inactive: 0.021	inactive: 0.025	inactive: -0.091	inactive: -0.03	inactive: 0.052	inactive: 0.145
VEGFA (UniProt H0YBI8)	–	–	–	–	–	–	–	–	–	–	–	inactive: -0.056	inactive: 0.126	–	–	–	–	–	–	–
USP6NL isoform 2 (UniProt Q92738)	–	inactive: 0.004	–	–	inactive: -0.005	inactive: 0.013	inactive: 0.213	inactive: -0.02	–	inactive: -0.03	inactive: 0.043	inactive: 0.055	inactive: -0.082	–	inactive: 0.094	–	–	–	–	inactive: -0.046
USB1 (UniProt Q9BQ65)	–	inactive: 0.132	inactive: 0.115	inactive: 0.016	inactive: 0.073	inactive: 0.159	inactive: 0.015	inactive: 0.166	–	inactive: 0.05	inactive: -0.062	inactive: -0.261	inactive: 0.065	inactive: 0.038	inactive: 0.109	inactive: 0.081	inactive: -0.169	inactive: -0.075	inactive: -0.022	inactive: 0.037
VDAC3 (UniProt Q9Y277)	–	inactive: 0.01	inactive: 0.008	inactive: -0.007	inactive: 0.042	inactive: 0.013	inactive: 0.014	inactive: 0.005	inactive: 0.006	inactive: 0.061	inactive: 0.053	inactive: -0.078	inactive: 0.024	inactive: 0.001	inactive: -0.012	inactive: -0.006	inactive: -0.023	inactive: -0.029	inactive: -0.02	inactive: -0.039

Random excerpt: 2 records from the list.
Target	log2 fold change (ibrutinib)	log2 fold change [1]	log2 fold change [2]	log2 fold change [3]	log2 fold change [4]	log2 fold change [5]	log2 fold change (vemurafenib)	log2 fold change [6]	log2 fold change (barasertib)	log2 fold change [7]	log2 fold change (volasertib)	log2 fold change [8]	log2 fold change [9]	log2 fold change (saracatinib)	log2 fold change (sotrastaurin)	log2 fold change (ralimetinib)	log2 fold change [10]	log2 fold change [11]	log2 fold change [12]	log2 fold change [13]
UPF3A (UniProt Q9H1J1)	inactive: 0.006	inactive: 0.024	inactive: -0.114	–	inactive: 0.014	inactive: 0.019	–	inactive: 0.048	inactive: 0.119	inactive: 0.194	inactive: -0.024	inactive: -0.087	inactive: 0.002	–	inactive: 0.067	inactive: 0.115	inactive: 0.005	inactive: -0.025	inactive: 0.049	–
USP15 isoform 3 (UniProt Q9Y4E8)	–	inactive: 0.037	–	inactive: 0	inactive: -0.049	inactive: -0.06	–	inactive: -0.005	–	–	inactive: 0.041	–	–	inactive: 0.036	inactive: -0.01	–	–	–	–	–

Source: the supplement of paper PMC10849652
